These are yes or no findings as the source states them, for the method shown. Some results given as binding are weak or reduced against the parent protein; the word gives no strength.
How the values were obtained:
[1] = target: interferon-alpha/beta receptor alpha chain (IFNAR1) (UniProt P17181); test: intrinsic fluorescence quenching of IFNAR1 titrated with peptide
[2] = target: interferon-alpha/beta receptor alpha chain (IFNAR1) (UniProt P17181); test: intrinsic fluorescence quenching of IFNAR1 (3 µM) titrated with 0-30 µM peptide

Sequences of proteins named here, by UniProt entry; tags and fusion partners are left off. Residues count along the entry.
UniProt P17181, residues 28-436: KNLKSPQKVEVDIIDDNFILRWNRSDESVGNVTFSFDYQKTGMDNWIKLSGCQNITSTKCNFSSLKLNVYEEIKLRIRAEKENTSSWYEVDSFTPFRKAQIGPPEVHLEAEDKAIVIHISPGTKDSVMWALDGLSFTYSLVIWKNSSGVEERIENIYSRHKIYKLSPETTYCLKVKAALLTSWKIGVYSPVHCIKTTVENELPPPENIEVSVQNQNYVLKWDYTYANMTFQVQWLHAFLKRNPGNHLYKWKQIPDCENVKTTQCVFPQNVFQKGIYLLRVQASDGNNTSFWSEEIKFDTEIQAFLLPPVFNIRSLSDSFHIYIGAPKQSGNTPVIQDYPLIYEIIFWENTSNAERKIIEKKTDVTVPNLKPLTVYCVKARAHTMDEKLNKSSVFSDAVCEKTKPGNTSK

For MLQNGRDVRKRGFSDTGLRKLGRVNLL (also called MSPEP27) [IFNβ analog peptide with SEQ ID No. 2], the binding [1] was “binds” and the binding [2] was “binds”.
